Experimental data from patent US4959352 (dated 1990).

Experiment: general procedure: Boc solid-phase peptide synthesis; benzhydrylamine (BHA) resin; DCC (HOBt preactivation for Boc-Asn-OH); BOP for on-resin cyclization
Settings: whole synthesis, scale 0.255 mmol

Cyclo^8,12 desNH2 Tyr^1,Ala^15 ]-GRF(1-29)-NH2
crude mass: 450 mg
